The target in test [1] is T1, CTC1 with N-terminal 3×FLAG tag (human) (UniProt Q2NKJ3).
T1 sequence: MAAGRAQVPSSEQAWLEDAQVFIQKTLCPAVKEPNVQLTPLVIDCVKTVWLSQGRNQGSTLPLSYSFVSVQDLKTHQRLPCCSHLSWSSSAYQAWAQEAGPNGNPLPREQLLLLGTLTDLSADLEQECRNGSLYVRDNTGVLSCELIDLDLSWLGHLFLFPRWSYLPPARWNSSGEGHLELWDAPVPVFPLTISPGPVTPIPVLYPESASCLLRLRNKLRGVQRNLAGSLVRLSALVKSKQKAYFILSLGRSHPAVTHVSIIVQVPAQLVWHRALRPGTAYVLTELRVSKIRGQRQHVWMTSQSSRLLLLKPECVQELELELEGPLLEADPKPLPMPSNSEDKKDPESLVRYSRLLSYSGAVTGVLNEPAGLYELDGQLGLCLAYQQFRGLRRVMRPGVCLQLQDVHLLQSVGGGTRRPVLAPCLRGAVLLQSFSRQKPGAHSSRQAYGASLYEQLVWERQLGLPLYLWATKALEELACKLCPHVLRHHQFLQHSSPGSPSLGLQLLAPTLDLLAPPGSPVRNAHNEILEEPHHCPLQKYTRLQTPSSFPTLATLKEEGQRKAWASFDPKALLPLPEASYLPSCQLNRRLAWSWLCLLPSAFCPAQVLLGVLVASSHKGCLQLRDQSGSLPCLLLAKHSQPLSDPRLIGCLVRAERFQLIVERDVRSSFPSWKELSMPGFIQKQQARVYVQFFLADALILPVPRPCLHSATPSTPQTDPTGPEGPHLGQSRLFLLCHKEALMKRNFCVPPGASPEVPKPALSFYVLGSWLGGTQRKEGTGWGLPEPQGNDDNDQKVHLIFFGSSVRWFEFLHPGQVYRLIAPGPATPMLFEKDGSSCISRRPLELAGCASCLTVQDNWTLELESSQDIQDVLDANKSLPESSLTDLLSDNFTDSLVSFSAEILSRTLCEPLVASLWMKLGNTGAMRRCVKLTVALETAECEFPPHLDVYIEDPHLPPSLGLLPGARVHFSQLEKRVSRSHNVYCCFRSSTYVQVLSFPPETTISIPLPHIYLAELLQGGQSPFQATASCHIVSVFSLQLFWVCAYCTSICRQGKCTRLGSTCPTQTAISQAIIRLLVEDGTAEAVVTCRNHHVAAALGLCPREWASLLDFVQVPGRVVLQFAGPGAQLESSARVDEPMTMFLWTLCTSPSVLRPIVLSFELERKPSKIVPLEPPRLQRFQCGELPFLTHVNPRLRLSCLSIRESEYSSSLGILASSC
In words: co-IP; successive anti-FLAG and anti-HA immunopurifications of 3×FLAG-CTC1, Myc-STN1 and HA-TEN1 from transfected HEK293T cells, 150 mM NaCl in the wash and elution buffers; subunits found by western blot and quantified against insect-cell standards. (In western blotting, separated proteins are transferred to a membrane and probed.)

Test [2] addresses T2, TEN1 with N-terminal HA tag (human) (UniProt Q86WV5).
T2 sequence: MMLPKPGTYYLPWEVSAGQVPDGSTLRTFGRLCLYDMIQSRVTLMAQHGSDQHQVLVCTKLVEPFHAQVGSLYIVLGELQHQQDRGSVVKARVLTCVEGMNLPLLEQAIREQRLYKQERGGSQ
Described as above.

The record followed here is paper PMC9402439.

Results are given in words; binding and its absence hold for the method and conditions named. Binding seen in cells or lysates may run through a third protein. Some entries that bind do so weakly or less than the wild type. Sequences can lack the tags named with a protein.

B1: TEN1 with N-terminal HA tag (protein, UniProt Q86WV5 1-123)
chain: MMLPKPGTYYLPWEVSAGQVPDGSTLRTFGRLCLYDMIQSRVTLMAQHGSDQHQVLVCTKLVEPFHAQVGSLYIVLGELQHQQDRGSVVKARVLTCVEGMNLPLLEQAIREQRLYKQERGGSQ
For the molecule B1, in test [1], the binding result was “binds”.

B2: STN1 with N-terminal Myc tag (protein, UniProt Q9H668 1-368)
chain: MQPGSSRCEEETPSLLWGLDPVFLAFAKLYIRDILDMKESRQVPGVFLYNGHPIKQVDVLGTVIGVRERDAFYSYGVDDSTGVINCICWKKLNTESVSAAPSAARELSLTSQLKKLQETIEQKTKIEIGDTIRVRGSIRTYREEREIHATTYYKVDDPVWNIQIARMLELPTIYRKVYDQPFHSSALEKEEALSNPGALDLPSLTSLLSEKAKEFLMENRVQSFYQQELEMVESLLSLANQPVIHSASSDQVNFKKDTTSKAIHSIFKNAIQLLQEKGLVFQKDDGFDNLYYVTREDKDLHRKIHRIIQQDCQKPNHMEKGCHFLHILACARLSIRPGLSEAVLQQVLELLEDQSDIVSTMEHYYTAF
On to B2, for which the binding entry in test [1] and in test [2] was “binds” throughout.
